Assay results published in PMC7893578.
Where a chain is given by its changes, count along the chain named. No constants are given. Whether binding was seen depends on the method and setting. Binding seen in cells or lysates may run through a third protein. Some binding calls cover weakened binding; strength is not graded here. For some of these results: Where a sequence is shown, tags or fusion partners need not be part of it. One block for each molecule: values may come before it.

The chains behind the UniProt entries cited, without tags or fusion partners.
UniProt P46937: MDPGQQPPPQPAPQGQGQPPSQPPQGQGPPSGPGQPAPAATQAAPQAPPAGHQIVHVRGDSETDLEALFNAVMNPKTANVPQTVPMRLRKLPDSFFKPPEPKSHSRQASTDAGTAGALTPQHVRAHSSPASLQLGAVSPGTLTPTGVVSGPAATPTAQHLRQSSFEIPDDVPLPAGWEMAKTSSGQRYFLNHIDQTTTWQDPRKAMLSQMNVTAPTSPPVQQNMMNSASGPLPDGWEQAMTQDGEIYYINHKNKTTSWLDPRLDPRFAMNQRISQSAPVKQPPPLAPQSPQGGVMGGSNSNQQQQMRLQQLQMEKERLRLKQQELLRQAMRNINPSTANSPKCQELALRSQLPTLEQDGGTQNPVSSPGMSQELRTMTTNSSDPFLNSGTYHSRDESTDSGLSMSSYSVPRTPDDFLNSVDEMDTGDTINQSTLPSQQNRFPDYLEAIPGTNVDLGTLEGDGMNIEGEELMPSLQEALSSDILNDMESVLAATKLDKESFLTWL

Columns and labels:
[1] = molecular target: T1, Flag-TRIM11 full length (UniProt Q96F44); assay: co-IP; HEK293 cells co-transfected with Flag-TRIM11 and Myc-YAP alpha (full length or mutants), harvested after 24 h with NP-40 lysis buffer; IP with Flag antibody and blot with Myc antibody (4C) or IP with Myc antibody and blot with Flag antibody (4D)
T1 sequence: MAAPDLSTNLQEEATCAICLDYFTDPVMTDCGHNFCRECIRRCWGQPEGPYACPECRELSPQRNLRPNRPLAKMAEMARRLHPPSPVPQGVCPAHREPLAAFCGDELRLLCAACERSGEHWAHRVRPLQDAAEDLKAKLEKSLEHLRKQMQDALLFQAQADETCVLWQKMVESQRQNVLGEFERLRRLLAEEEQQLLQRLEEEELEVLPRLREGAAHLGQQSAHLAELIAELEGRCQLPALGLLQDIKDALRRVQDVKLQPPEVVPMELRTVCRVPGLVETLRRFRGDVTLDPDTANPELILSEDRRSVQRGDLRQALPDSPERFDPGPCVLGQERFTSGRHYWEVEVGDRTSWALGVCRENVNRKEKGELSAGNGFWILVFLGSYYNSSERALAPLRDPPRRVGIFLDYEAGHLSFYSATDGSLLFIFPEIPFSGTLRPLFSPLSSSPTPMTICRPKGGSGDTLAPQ

[2] = molecular target: YAP (endogenous, CAL62 cells) (human (endogenous in CAL62)) (UniProt P46937); assay: co-IP; endogenous proteins from CAL62 cell lysate (RIPA lysis buffer by the legend, co-IP lysis buffer by the methods); precleared with rabbit IgG, IP with anti-TRIM11 or anti-YAP overnight, rabbit IgG as negative control; Western blot with anti-YAP or anti-TRIM11
[3] = molecular target: YAP (endogenous, CAL62 cells) (human (endogenous in CAL62)) (UniProt P46937); assay: co-IP; Myc-TRIM11-2CA expressed in CAL62 cells, endogenous YAP
[4] = molecular target: YAP (GST pull-down assay, in vitro) (UniProt P46937); assay: pull-down; GST pull-down, in vitro (Figure S2)

- binding [1]: binds
Molecule: Myc-YAP alpha full length (from UniProt P46937 1-504)

- binding [3]: binds
B2: Myc-TRIM11-2CA (protein, UniProt Q96F44 1-468)
chain: T1 sequence with C16A, C19A

Further lines, the molecule ahead of its results:

B1: TRIM11 (endogenous, CAL62 cells) (protein, UniProt Q96F44 1-468)
chain: T1 sequence
- binding [2]: binds

B3: TRIM11 (GST pull-down assay, in vitro) (protein, UniProt Q96F44 1-468)
chain: T1 sequence
- binding [4]: binds
